According to the supplement of paper PMC12823440, “Inhibitors supercharge kinase turnover through native proteolytic circuits” (Nature, 2025):
The list shows a part of the results. Hit calls seldom repeat between salt and free forms of one compound.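 In K562 cells expressing nanoluciferase-fused kinases, luminescence was recorded at 4 h intervals between 2 and 18 h, normalized as percent of control with DMSO at 100% and a positive control at 0%. A significant (2 sigma) signal drop marks a time point as decreased. The authors' rule for a hit is not shown and takes in more than the number of time points.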

The chains behind the UniProt entries cited, without tags or fusion partners. Where a name states a change or a piece, a line headed by the entry shows the natural chain unless it says otherwise.
UniProt Q9UBF8: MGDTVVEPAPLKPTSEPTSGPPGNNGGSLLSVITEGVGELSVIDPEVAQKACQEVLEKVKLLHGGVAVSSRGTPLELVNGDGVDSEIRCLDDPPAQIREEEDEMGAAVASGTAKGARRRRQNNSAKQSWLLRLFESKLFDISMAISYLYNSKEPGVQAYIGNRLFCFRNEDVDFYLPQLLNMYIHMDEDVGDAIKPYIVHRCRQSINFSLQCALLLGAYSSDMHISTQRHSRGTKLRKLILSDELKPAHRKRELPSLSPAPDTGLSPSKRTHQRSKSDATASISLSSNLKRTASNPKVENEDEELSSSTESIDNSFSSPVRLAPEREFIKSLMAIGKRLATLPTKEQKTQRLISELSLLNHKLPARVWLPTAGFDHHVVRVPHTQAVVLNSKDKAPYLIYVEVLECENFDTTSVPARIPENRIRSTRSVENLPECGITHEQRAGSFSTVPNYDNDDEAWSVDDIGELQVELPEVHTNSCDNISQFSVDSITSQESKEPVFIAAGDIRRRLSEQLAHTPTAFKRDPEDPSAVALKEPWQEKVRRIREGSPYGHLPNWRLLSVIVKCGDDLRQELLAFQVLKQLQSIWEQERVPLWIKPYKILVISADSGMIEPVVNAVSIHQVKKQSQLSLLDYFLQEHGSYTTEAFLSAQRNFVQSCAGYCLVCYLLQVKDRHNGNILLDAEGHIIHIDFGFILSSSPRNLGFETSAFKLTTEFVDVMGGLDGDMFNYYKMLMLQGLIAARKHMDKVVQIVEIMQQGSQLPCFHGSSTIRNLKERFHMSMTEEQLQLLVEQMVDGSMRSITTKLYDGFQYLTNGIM
UniProt P53350, whole entry: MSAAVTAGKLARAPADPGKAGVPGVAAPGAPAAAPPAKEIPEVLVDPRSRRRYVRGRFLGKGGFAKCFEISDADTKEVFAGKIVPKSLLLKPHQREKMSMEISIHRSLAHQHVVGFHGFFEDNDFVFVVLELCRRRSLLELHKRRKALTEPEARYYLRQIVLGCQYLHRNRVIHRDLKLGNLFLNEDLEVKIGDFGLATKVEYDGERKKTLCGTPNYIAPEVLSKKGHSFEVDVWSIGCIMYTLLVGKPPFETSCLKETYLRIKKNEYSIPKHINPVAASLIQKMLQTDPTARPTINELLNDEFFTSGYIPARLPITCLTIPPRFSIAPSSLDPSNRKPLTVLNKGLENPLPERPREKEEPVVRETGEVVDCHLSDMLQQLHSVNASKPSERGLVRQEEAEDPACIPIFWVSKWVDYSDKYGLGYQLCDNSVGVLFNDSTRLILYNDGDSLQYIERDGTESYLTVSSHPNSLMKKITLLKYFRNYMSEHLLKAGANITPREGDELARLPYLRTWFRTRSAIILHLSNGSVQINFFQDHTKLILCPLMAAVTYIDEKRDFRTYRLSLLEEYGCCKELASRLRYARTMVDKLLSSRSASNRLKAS
UniProt Q05397, whole entry, looked up: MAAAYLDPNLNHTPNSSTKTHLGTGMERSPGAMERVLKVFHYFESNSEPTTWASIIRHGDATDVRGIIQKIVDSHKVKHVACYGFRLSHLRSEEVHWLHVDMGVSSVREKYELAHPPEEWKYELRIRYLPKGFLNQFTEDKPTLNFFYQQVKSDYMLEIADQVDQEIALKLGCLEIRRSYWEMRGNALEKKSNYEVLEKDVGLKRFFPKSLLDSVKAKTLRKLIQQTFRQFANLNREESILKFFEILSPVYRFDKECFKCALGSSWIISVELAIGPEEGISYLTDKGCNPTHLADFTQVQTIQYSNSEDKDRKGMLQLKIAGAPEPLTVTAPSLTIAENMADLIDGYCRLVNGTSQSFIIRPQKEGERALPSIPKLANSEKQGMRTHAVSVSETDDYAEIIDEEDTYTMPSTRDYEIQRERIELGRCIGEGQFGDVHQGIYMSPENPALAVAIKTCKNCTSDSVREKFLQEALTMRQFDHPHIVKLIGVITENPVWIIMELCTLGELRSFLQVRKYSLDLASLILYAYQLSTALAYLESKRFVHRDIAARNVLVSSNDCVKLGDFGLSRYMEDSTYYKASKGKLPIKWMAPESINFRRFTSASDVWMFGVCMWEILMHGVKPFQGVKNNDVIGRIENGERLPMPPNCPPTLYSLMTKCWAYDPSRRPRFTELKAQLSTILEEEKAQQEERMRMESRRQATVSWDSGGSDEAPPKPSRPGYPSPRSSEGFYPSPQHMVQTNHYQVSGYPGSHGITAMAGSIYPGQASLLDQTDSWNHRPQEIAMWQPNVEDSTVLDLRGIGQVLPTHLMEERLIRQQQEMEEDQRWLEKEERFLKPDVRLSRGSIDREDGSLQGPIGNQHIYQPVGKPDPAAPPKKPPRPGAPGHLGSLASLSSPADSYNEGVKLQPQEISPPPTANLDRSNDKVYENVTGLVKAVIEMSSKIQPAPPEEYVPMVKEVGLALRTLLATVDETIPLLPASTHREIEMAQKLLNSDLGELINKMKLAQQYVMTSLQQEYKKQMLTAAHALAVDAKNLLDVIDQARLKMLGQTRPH
UniProt Q14289, whole entry, looked up: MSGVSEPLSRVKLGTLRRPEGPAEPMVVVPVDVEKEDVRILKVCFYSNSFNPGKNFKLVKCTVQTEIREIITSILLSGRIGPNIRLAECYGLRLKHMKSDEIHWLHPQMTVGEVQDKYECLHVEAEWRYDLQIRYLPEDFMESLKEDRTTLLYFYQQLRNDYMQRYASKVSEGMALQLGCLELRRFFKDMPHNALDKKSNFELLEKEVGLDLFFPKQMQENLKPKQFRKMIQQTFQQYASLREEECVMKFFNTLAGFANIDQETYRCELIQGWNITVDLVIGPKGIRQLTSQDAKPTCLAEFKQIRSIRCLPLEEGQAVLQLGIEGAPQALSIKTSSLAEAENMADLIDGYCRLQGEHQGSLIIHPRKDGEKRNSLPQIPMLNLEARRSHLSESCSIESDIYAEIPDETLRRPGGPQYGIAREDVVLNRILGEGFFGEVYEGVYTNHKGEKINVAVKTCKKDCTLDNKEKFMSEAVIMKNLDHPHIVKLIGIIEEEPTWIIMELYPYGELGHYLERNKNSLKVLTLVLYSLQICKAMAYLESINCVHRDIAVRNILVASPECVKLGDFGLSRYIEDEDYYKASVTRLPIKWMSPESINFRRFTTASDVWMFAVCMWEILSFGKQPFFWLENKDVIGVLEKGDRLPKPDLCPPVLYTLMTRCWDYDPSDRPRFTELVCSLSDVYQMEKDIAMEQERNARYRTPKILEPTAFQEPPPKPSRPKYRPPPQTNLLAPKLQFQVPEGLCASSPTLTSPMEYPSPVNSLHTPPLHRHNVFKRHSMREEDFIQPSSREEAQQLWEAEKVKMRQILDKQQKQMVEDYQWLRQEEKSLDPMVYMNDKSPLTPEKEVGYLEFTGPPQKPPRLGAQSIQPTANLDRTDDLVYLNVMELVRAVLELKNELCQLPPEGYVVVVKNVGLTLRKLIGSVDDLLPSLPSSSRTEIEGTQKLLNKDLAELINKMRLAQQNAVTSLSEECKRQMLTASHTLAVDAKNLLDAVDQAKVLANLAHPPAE
UniProt Q9BRS2: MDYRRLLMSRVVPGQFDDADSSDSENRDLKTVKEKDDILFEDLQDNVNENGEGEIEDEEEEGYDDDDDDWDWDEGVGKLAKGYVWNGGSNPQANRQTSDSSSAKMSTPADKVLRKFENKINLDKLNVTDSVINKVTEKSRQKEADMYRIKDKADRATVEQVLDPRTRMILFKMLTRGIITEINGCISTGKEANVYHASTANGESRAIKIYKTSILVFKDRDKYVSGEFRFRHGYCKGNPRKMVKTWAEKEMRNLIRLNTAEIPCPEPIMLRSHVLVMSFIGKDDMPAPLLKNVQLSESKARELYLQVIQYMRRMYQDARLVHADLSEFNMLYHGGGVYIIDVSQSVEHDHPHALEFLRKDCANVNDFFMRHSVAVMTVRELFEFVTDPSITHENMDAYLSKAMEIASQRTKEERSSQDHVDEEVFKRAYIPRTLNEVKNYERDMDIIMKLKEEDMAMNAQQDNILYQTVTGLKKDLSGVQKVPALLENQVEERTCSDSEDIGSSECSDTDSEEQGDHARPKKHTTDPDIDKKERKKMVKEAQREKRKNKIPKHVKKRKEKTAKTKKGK
UniProt Q13546: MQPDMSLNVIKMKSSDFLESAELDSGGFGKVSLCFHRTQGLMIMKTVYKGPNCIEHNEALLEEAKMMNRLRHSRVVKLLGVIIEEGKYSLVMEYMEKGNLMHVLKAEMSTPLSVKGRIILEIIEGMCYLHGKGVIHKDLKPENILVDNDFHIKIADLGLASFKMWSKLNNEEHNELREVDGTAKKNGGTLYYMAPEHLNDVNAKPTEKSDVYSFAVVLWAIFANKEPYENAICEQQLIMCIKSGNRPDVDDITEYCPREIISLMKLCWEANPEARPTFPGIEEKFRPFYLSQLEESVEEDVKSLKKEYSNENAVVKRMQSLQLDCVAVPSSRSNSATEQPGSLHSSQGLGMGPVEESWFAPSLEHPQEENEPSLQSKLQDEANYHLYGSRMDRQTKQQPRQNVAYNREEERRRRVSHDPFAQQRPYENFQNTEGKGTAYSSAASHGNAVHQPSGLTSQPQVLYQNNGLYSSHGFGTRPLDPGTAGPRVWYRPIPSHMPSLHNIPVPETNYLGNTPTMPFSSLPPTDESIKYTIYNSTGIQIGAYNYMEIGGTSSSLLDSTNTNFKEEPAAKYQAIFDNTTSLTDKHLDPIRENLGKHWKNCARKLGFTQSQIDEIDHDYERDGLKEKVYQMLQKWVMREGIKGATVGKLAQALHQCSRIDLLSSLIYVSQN
UniProt Q01974, whole entry: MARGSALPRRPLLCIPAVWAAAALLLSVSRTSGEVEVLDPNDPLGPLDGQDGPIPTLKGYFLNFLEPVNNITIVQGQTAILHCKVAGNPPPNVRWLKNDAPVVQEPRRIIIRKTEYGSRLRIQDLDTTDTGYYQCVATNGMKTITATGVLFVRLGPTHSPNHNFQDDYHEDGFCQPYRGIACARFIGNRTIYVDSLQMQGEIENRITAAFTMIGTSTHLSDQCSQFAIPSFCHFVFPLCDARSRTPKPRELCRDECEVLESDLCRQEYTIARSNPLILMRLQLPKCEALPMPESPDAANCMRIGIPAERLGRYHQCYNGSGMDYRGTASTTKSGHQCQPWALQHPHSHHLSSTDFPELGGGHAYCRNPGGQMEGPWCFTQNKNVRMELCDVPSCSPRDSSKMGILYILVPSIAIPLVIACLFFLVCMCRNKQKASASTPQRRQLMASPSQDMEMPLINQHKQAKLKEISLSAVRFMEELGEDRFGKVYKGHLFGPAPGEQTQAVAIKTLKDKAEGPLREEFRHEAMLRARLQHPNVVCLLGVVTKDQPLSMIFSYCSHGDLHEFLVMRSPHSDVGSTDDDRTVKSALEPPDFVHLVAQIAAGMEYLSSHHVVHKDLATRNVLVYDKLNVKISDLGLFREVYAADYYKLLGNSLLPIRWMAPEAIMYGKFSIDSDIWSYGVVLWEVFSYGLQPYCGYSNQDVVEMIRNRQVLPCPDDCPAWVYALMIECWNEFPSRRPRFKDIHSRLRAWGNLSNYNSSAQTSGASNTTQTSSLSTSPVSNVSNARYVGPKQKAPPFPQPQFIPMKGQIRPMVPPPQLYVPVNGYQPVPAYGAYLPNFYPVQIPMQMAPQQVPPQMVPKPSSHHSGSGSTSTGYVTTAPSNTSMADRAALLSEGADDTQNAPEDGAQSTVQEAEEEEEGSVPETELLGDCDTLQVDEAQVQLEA
UniProt Q9NYA1, whole entry: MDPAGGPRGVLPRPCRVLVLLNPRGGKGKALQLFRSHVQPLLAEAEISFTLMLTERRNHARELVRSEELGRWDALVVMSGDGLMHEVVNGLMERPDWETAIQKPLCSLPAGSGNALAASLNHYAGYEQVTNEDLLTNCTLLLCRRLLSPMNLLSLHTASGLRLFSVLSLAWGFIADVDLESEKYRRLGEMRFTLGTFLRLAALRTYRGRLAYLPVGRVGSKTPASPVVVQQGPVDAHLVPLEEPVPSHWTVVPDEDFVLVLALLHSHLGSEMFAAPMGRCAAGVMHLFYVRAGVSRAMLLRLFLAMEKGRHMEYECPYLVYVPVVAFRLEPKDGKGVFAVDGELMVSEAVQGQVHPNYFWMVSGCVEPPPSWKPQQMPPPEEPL
UniProt Q9Y6E0: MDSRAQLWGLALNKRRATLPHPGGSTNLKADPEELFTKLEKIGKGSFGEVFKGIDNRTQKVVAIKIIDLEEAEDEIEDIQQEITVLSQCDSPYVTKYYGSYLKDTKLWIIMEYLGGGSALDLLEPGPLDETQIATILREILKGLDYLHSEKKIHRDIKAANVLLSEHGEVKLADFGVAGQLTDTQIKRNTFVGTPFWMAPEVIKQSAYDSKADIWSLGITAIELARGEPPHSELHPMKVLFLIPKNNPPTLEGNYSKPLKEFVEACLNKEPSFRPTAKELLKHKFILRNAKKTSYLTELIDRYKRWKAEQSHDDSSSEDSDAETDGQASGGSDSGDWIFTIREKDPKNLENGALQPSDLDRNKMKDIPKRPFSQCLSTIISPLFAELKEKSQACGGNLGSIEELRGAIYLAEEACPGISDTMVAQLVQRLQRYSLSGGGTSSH

Legend:
Assay in all cases: kinase-Nluc reporter destabilization hit call (1 = scored as downregulated) (binary); higher = compound decreases kinase abundance
Conditions in all cases: K562; 2-18 h
PDPK1 = PDPK1 (UniProt O15530)
PIK4CA = PIK4CA (UniProt P42356)
PIK4CB = PIK4CB (UniProt Q9UBF8)
PLK1 = PLK1 (UniProt P53350)
PRKAA1 = PRKAA1 (UniProt Q13131)
PRKCA = PRKCA (UniProt P17252)
PTK2 = PTK2 (UniProt Q05397)
PTK2B = PTK2B (UniProt Q14289)
RAF1 = RAF1 (UniProt P04049)
[1] = molecular target: RAF1_S257L (clone: RAF1_mut) (UniProt P04049)
RET = RET (UniProt P07949)
[2] = molecular target: RET_M918T (clone: RET_mut) (UniProt P07949)
RIOK1 = RIOK1 (UniProt Q9BRS2)
RIPK1 = RIPK1 (UniProt Q13546)
RIPK2 = RIPK2 (UniProt O43353)
ROR2 = ROR2 (UniProt Q01974)
RPS6KA1 = RPS6KA1 (UniProt Q15418)
SPHK1 = SPHK1 (UniProt Q9NYA1)
SRC = SRC (UniProt P12931)
STK24 = STK24 (UniProt Q9Y6E0)

Measured: kinase-Nluc reporter destabilization hit call

O=c1cc(-c2ccc(O)cc2)oc2cc(O)c(O)c(O)c12 [Scutellarein] (10 µM)
inactive: PDPK1 = 0 | PIK4CA 0 | PIK4CB 0 | PLK1 = 0 | PRKAA1 = 0 | PRKCA 0 | PTK2 = 0 | PTK2B 0 | RAF1 = 0 | [1] 0 | RET 0 | [2] 0 | RIOK1 = 0 | RIPK1 = 0 | RIPK2 = 0 | ROR2 = 0 | RPS6KA1 = 0 | SPHK1 = 0 | SRC 0 | STK24 = 0

CC(=O)c1cc(O)ccc1O [2,5-Dihydroxyacetophenone] (10 µM)
inactive: PDPK1 = 0 | PIK4CA 0 | PIK4CB 0 | PLK1 = 0 | PRKAA1 = 0 | PRKCA 0 | PTK2 = 0 | PTK2B 0 | RAF1 = 0 | [1] 0 | RET 0 | [2] 0 | RIOK1 = 0 | RIPK1 = 0 | RIPK2 = 0 | ROR2 = 0 | RPS6KA1 = 0 | SPHK1 = 0 | SRC 0 | STK24 = 0

COc1ccc(-c2cnc3c(-c4cccc5ncccc45)cnn3c2)cc1 (10 µM)
inactive: PDPK1 = 0 | PIK4CA 0 | PIK4CB 0 | PLK1 = 0 | PRKAA1 = 0 | PRKCA 0 | PTK2 = 0 | PTK2B 0 | RAF1 = 0 | [1] 0 | RET 0 | [2] 0 | RIOK1 = 0 | RIPK1 = 0 | RIPK2 = 0 | ROR2 = 0 | RPS6KA1 = 0 | SPHK1 = 0 | SRC 0 | STK24 = 0

O=c1cc(N2CCOCC2)oc2c1ccc1ccccc12 (2 µM)
inactive: PDPK1 = 0 | PIK4CA 0 | PIK4CB 0 | PLK1 = 0 | PRKAA1 = 0 | PRKCA 0 | PTK2 = 0 | PTK2B 0 | RAF1 = 0 | [1] 0 | RET 0 | [2] 0 | RIOK1 = 0 | RIPK1 = 0 | RIPK2 = 0 | ROR2 = 0 | RPS6KA1 = 0 | SPHK1 = 0 | SRC 0 | STK24 = 0

CN(c1ccc(C(F)(F)F)cc1)S(=O)(=O)c1ccc(C(=O)Nc2nc(-c3ccccn3)cs2)cc1 (2.5 µM)
inactive: PDPK1 = 0 | PIK4CA 0 | PIK4CB 0 | PLK1 = 0 | PRKAA1 = 0 | PRKCA 0 | PTK2 = 0 | PTK2B 0 | RAF1 = 0 | [1] 0 | RET 0 | [2] 0 | RIOK1 = 0 | RIPK1 = 0 | RIPK2 = 0 | ROR2 = 0 | RPS6KA1 = 0 | SPHK1 = 0 | SRC 0 | STK24 = 0

COc1cccc(Nc2ncnn3ccc(CN4CC[C@@H](N)[C@H](O)C4)c23)c1 (2.5 µM)
inactive: PDPK1 = 0 | PIK4CA 0 | PIK4CB 0 | PLK1 = 0 | PRKAA1 = 0 | PRKCA 0 | PTK2 = 0 | PTK2B 0 | RAF1 = 0 | [1] 0 | RET 0 | [2] 0 | RIOK1 = 0 | RIPK1 = 0 | RIPK2 = 0 | ROR2 = 0 | RPS6KA1 = 0 | SPHK1 = 0 | SRC 0 | STK24 = 0

CC(C)=C/C=C1\O[C@@H]2CC(C)=CC(=O)[C@@H]2[C@]1(C)O [Bisabolangelone] (10 µM)
inactive: PDPK1 = 0 | PIK4CA 0 | PIK4CB 0 | PLK1 = 0 | PRKAA1 = 0 | PRKCA 0 | PTK2 = 0 | PTK2B 0 | RAF1 = 0 | [1] 0 | RET 0 | [2] 0 | RIOK1 = 0 | RIPK1 = 0 | RIPK2 = 0 | ROR2 = 0 | RPS6KA1 = 0 | SPHK1 = 0 | SRC 0 | STK24 = 0

NC(=O)c1ccc2nc(-c3ccc(C4(N)CCC4)cc3)c(-c3ccccc3)n2n1 (10 µM)
inactive: PDPK1 = 0 | PIK4CA 0 | PIK4CB 0 | PLK1 = 0 | PRKAA1 = 0 | PRKCA 0 | PTK2 = 0 | PTK2B 0 | RAF1 = 0 | [1] 0 | RET 0 | [2] 0 | RIOK1 = 0 | RIPK1 = 0 | RIPK2 = 0 | ROR2 = 0 | RPS6KA1 = 0 | SPHK1 = 0 | SRC 0 | STK24 = 0

CS(=O)(=O)N1CCc2c(-c3cnc(N)nc3)nc(N3CCOCC3)nc21 (10 µM)
inactive: PDPK1 = 0 | PIK4CA 0 | PIK4CB 0 | PLK1 = 0 | PRKAA1 = 0 | PRKCA 0 | PTK2 = 0 | PTK2B 0 | RAF1 = 0 | [1] 0 | RET 0 | [2] 0 | RIOK1 = 0 | RIPK1 = 0 | RIPK2 = 0 | ROR2 = 0 | RPS6KA1 = 0 | SPHK1 = 0 | SRC 0 | STK24 = 0

C=CCN(/C=C1/C(=O)O[C@H](COC)[C@@]2(C)C1=C(O)C(=O)C1=C2[C@H](OC(C)=O)C[C@]2(C)C(=O)CC[C@@H]12)CC=C [Sonolisib] (2.5 µM)
inactive: PDPK1 = 0 | PIK4CA 0 | PIK4CB 0 | PLK1 = 0 | PRKAA1 = 0 | PRKCA 0 | PTK2 = 0 | PTK2B 0 | RAF1 = 0 | [1] 0 | RET 0 | [2] 0 | RIOK1 = 0 | RIPK1 = 0 | RIPK2 = 0 | ROR2 = 0 | RPS6KA1 = 0 | SPHK1 = 0 | SRC 0 | STK24 = 0

4 compounds from above, ordered by length of the SMILES, rising.
O=c1cc(N2CCOCC2)oc2c1ccc1ccccc12 (2 µM)
inactive: PDPK1 = 0 | PIK4CA 0 | PIK4CB 0 | PLK1 = 0 | PRKAA1 = 0 | PRKCA 0 | PTK2 = 0 | PTK2B 0 | RAF1 = 0 | [1] 0 | RET 0 | [2] 0 | RIOK1 = 0 | RIPK1 = 0 | RIPK2 = 0 | ROR2 = 0 | RPS6KA1 = 0 | SPHK1 = 0 | SRC 0 | STK24 = 0

CS(=O)(=O)N1CCc2c(-c3cnc(N)nc3)nc(N3CCOCC3)nc21 (10 µM)
inactive: PDPK1 = 0 | PIK4CA 0 | PIK4CB 0 | PLK1 = 0 | PRKAA1 = 0 | PRKCA 0 | PTK2 = 0 | PTK2B 0 | RAF1 = 0 | [1] 0 | RET 0 | [2] 0 | RIOK1 = 0 | RIPK1 = 0 | RIPK2 = 0 | ROR2 = 0 | RPS6KA1 = 0 | SPHK1 = 0 | SRC 0 | STK24 = 0

CC(C)=C/C=C1\O[C@@H]2CC(C)=CC(=O)[C@@H]2[C@]1(C)O [Bisabolangelone] (10 µM)
inactive: PDPK1 = 0 | PIK4CA 0 | PIK4CB 0 | PLK1 = 0 | PRKAA1 = 0 | PRKCA 0 | PTK2 = 0 | PTK2B 0 | RAF1 = 0 | [1] 0 | RET 0 | [2] 0 | RIOK1 = 0 | RIPK1 = 0 | RIPK2 = 0 | ROR2 = 0 | RPS6KA1 = 0 | SPHK1 = 0 | SRC 0 | STK24 = 0

CN(c1ccc(C(F)(F)F)cc1)S(=O)(=O)c1ccc(C(=O)Nc2nc(-c3ccccn3)cs2)cc1 (2.5 µM)
inactive: PDPK1 = 0 | PIK4CA 0 | PIK4CB 0 | PLK1 = 0 | PRKAA1 = 0 | PRKCA 0 | PTK2 = 0 | PTK2B 0 | RAF1 = 0 | [1] 0 | RET 0 | [2] 0 | RIOK1 = 0 | RIPK1 = 0 | RIPK2 = 0 | ROR2 = 0 | RPS6KA1 = 0 | SPHK1 = 0 | SRC 0 | STK24 = 0

The list continues.

COc1ncc2cc(C(=O)Nc3cc(C(=O)NCc4cccc(Cl)c4)ccc3Cl)c(=O)[nH]c2n1 (2.5 µM)
inactive: PDPK1 = 0 | PIK4CA 0 | PIK4CB 0 | PLK1 = 0 | PRKAA1 = 0 | PRKCA 0 | PTK2 = 0 | PTK2B 0 | RAF1 = 0 | [1] 0 | RET 0 | [2] 0 | RIOK1 = 0 | RIPK1 = 0 | RIPK2 = 0 | ROR2 = 0 | RPS6KA1 = 0 | SPHK1 = 0 | SRC 0 | STK24 = 0

O=S(=O)(c1cccc2c(Cl)cccc12)N1CCCNCC1 (10 µM)
inactive: PDPK1 = 0 | PIK4CA 0 | PIK4CB 0 | PLK1 = 0 | PRKAA1 = 0 | PRKCA 0 | PTK2 = 0 | PTK2B 0 | RAF1 = 0 | [1] 0 | RET 0 | [2] 0 | RIOK1 = 0 | RIPK1 = 0 | RIPK2 = 0 | ROR2 = 0 | RPS6KA1 = 0 | SPHK1 = 0 | SRC 0 | STK24 = 0

O=C1c2cccc(O)c2C(=O)c2c(O)cccc21 [Danthron] (10 µM)
inactive: PDPK1 = 0 | PIK4CA 0 | PIK4CB 0 | PLK1 = 0 | PRKAA1 = 0 | PRKCA 0 | PTK2 = 0 | PTK2B 0 | RAF1 = 0 | [1] 0 | RET 0 | [2] 0 | RIOK1 = 0 | RIPK1 = 0 | RIPK2 = 0 | ROR2 = 0 | RPS6KA1 = 0 | SPHK1 = 0 | SRC 0 | STK24 = 0

CC[C@@H]1CN(C(=O)NCC(F)(F)F)C[C@@H]1c1cnc2cnc3[nH]ccc3n12 [Upadacitinib] (10 µM)
inactive: PDPK1 = 0 | PIK4CA 0 | PIK4CB 0 | PLK1 = 0 | PRKAA1 = 0 | PRKCA 0 | PTK2 = 0 | PTK2B 0 | RAF1 = 0 | [1] 0 | RET 0 | [2] 0 | RIOK1 = 0 | RIPK1 = 0 | RIPK2 = 0 | ROR2 = 0 | RPS6KA1 = 0 | SPHK1 = 0 | SRC 0 | STK24 = 0

C[C@@H](Nc1cc(F)cc(F)c1)c1cc(C(=O)N(C)C)cc2c(=O)cc(N3CCOCC3)oc12 (10 µM)
inactive: PDPK1 = 0 | PIK4CA 0 | PIK4CB 0 | PLK1 = 0 | PRKAA1 = 0 | PRKCA 0 | PTK2 = 0 | PTK2B 0 | RAF1 = 0 | RET 0 | [2] 0 | RIOK1 = 0 | RIPK1 = 0 | RIPK2 = 0 | ROR2 = 0 | RPS6KA1 = 0 | SPHK1 = 0 | SRC 0 | STK24 = 0
active: [1] 1

C[C@@H]1CN(CC(=O)Nc2ccc3c(c2)Cc2cccc(-c4cc(=O)cc(N5CCOCC5)o4)c2S3)C[C@H](C)O1 (2.5 µM)
inactive: PDPK1 = 0 | PIK4CA 0 | PIK4CB 0 | PLK1 = 0 | PRKAA1 = 0 | PRKCA 0 | PTK2 = 0 | PTK2B 0 | RAF1 = 0 | [1] 0 | RET 0 | [2] 0 | RIOK1 = 0 | RIPK1 = 0 | RIPK2 = 0 | ROR2 = 0 | RPS6KA1 = 0 | SPHK1 = 0 | SRC 0 | STK24 = 0

Nc1n[nH]c(N)c1N=Nc1ccc(O)cc1 (10 µM)
inactive: PDPK1 = 0 | PIK4CA 0 | PIK4CB 0 | PLK1 = 0 | PRKAA1 = 0 | PRKCA 0 | PTK2 = 0 | PTK2B 0 | RAF1 = 0 | [1] 0 | RET 0 | [2] 0 | RIOK1 = 0 | RIPK1 = 0 | RIPK2 = 0 | ROR2 = 0 | RPS6KA1 = 0 | SPHK1 = 0 | SRC 0 | STK24 = 0

O=c1ccc2cc(O)c(O)cc2o1 [Esculetin] (10 µM)
inactive: PDPK1 = 0 | PIK4CA 0 | PIK4CB 0 | PLK1 = 0 | PRKAA1 = 0 | PRKCA 0 | PTK2 = 0 | PTK2B 0 | RAF1 = 0 | [1] 0 | RET 0 | [2] 0 | RIOK1 = 0 | RIPK1 = 0 | RIPK2 = 0 | ROR2 = 0 | RPS6KA1 = 0 | SPHK1 = 0 | SRC 0 | STK24 = 0
